Measurements published in patent publication US20190376039A1, “CELLS WITH IMPROVED INWARD RECTIFIER CURRENT” (priority 2018, published 2019).

Test system: IK1-induced ventricular-like SC-CMs
Experiment: Action potentials under current clamp in paced IK1-induced SC-CMs (di-LQTS model)
Protocol: SC-CMs were singularized and plated before cellular electrophysiology experiments on 12-mm poly-d-lysine/laminin or SyntheMax pre-coated coverslips. IK1 was induced by treating singularized cells with doxycycline (2 μM) (Thermo Fisher Scientific) for 48-72 hours prior to cellular electrophysiology analysis. Borosilicate glass pipettes (3-4 MΩ) were used (Model P-97; Sutter Instruments, Novato, Calif.). Whole cell capacitance was calculated by using the time domain technique (20).
AP were measured under current clamp at 32° C. using an Axopatch 200B amplifier and pCLAMP 10 (Molecular Devices, Sunnyvale, Calif.). […] The pipette solution comprised 150 mM K-gluconate, 5 mM EGTA, 10 mM HEPES, and 5 mM MgATP (pH 7.2, KOH). Myocytes were paced at 0.5, 1, 2, and 3 Hz with a depolarizing pulse from a programmable digital stimulator (D55000; WPI, Sarasota, Fla.). AP properties including AP amplitude; resting membrane potential; AP duration at 10% (APD10), 50% (APD50), 70% (APD70), and 90% (APD90) of repolarization; and maximum upstroke velocity (dV/dtmax) were measured (pCLAMP 10; Matlab 6.0, Natick, Mass.). […] Myocytes were paced at 0.5 and 1 Hz. […] AP properties identified above were re-measured.

## Cc1cccc(CCN2CCC(C(=O)c3ccc(NS(C)(=O)=O)cc3)CC2)n1 [E4031]
100 nM
  cells in which EADs occurred: 2/2
0.5 Hz pacing, E4031 20 nM and 100 nM, ATX-II 30 nM
  induction of early afterdepolarizations (EADs): induced EADs
0.5 Hz pacing, E4031 20 nM, ATX-II 30 nM, mean SE
  dV/dTmax: 207.5 ± 26.11 V/s
Drug vs baseline, E4031, ATX-II 30 nM
  effect on dV/dt max: not affected
